# PubChem BioAssay AID1224830 – NIAID, 2016
# Screen: 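Regulators of TLR4 signalling towards TNF-alpha in macrophage-like cells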 (primary screen)
# System: human THP-1 monocytic leukaemia cells, TNF dual-luciferase reporter clone, PMA-differentiated to macrophage-like cells
# Reagent: siRNA pool against human genes, 50 nM
# Timing: LPS for 4 h, given about 3 days after siRNA transfection
# Challenge: bacterial LPS (TLR4 ligand), 10 ng/ml
# Detection: 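TNF firefly reporter luminescence divided by renilla, normalised to the plate median, then turned into a robust z-score for each replicate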
# Scale: TNF reporter robust z-score: higher = stronger TNF reporter response to LPS
# Hit rule: 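Each well counts as active if its z-score is over 2.8 or under -1.5; controls are left without a call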
# Shown is one part, drawn at random, of about 18,000 deposited reagents. Of all reagents, about 2,900 (16%) got an active call. 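Calls are made per well; low scores hint the gene aids the LPS response, high scores that it dampens it.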 Repeated entries: four replicate wells of each siRNA pool. Reagent sequences are not shown.
target gene,TNF reporter robust z-score,Outcome
KLHL30 (kelch like family member 30),0.17,inactive
KLHL30 (kelch like family member 30),0.45,inactive
KLHL30 (kelch like family member 30),2.04,inactive
KLHL30 (kelch like family member 30),1.94,inactive
CD55 (CD55 molecule (Cromer blood group)),-0.23,inactive
CD55 (CD55 molecule (Cromer blood group)),0.25,inactive
CD55 (CD55 molecule (Cromer blood group)),0.59,inactive
CD55 (CD55 molecule (Cromer blood group)),0.22,inactive
AMER2 (APC membrane recruitment protein 2),,inactive
KLHL35 (kelch like family member 35),-1,inactive
KLHL35 (kelch like family member 35),-1.62,active
KLHL35 (kelch like family member 35),-1.08,inactive
KLHL35 (kelch like family member 35),-0.52,inactive
HNRNPA0 (heterogeneous nuclear ribonucleoprotein A0),0.29,inactive
HNRNPA0 (heterogeneous nuclear ribonucleoprotein A0),-0.16,inactive
HNRNPA0 (heterogeneous nuclear ribonucleoprotein A0),-1.12,inactive
HNRNPA0 (heterogeneous nuclear ribonucleoprotein A0),-0.47,inactive
PTPN3 (protein tyrosine phosphatase non-receptor type 3),5.42,active
PTPN3 (protein tyrosine phosphatase non-receptor type 3),0.44,inactive
PTPN3 (protein tyrosine phosphatase non-receptor type 3),4.03,active
PTPN3 (protein tyrosine phosphatase non-receptor type 3),2.39,inactive
ASTN1 (astrotactin 1),0.52,inactive
ASTN1 (astrotactin 1),2.63,inactive
ASTN1 (astrotactin 1),1.91,inactive
ASTN1 (astrotactin 1),1.41,inactive
ENPP4 (ectonucleotide pyrophosphatase/phosphodiesterase 4),-0.07,inactive
ENPP4 (ectonucleotide pyrophosphatase/phosphodiesterase 4),-0.18,inactive
ENPP4 (ectonucleotide pyrophosphatase/phosphodiesterase 4),0.15,inactive
ENPP4 (ectonucleotide pyrophosphatase/phosphodiesterase 4),-1.04,inactive

7 successive reagents already listed, for reference:
target gene,TNF reporter robust z-score,Outcome
HNRNPA0 (heterogeneous nuclear ribonucleoprotein A0),0.29,inactive
HNRNPA0 (heterogeneous nuclear ribonucleoprotein A0),-0.16,inactive
HNRNPA0 (heterogeneous nuclear ribonucleoprotein A0),-1.12,inactive
HNRNPA0 (heterogeneous nuclear ribonucleoprotein A0),-0.47,inactive
PTPN3 (protein tyrosine phosphatase non-receptor type 3),5.42,active
PTPN3 (protein tyrosine phosphatase non-receptor type 3),0.44,inactive
PTPN3 (protein tyrosine phosphatase non-receptor type 3),4.03,active

The listing continues:
target gene,TNF reporter robust z-score,Outcome
TMC1 (transmembrane channel like 1),-0.14,inactive
TMC1 (transmembrane channel like 1),0.69,inactive
TMC1 (transmembrane channel like 1),2.56,inactive
TMC1 (transmembrane channel like 1),0.36,inactive
POLR3K (RNA polymerase III subunit K),1.16,inactive
POLR3K (RNA polymerase III subunit K),-0.25,inactive
POLR3K (RNA polymerase III subunit K),0.77,inactive
POLR3K (RNA polymerase III subunit K),-0.08,inactive
ANKRD1 (ankyrin repeat domain 1),-0.59,inactive
ANKRD1 (ankyrin repeat domain 1),-0.75,inactive
ANKRD1 (ankyrin repeat domain 1),-1.01,inactive
ANKRD1 (ankyrin repeat domain 1),-0.19,inactive
TLK2 (tousled like kinase 2),0.57,inactive
TLK2 (tousled like kinase 2),0.86,inactive
TLK2 (tousled like kinase 2),1.23,inactive
TLK2 (tousled like kinase 2),2.58,inactive
